Results from publication doi:10.1101/2020.07.07.180133.
Results are given in words; binding and its absence hold for the method and conditions named. Binding seen in cells or lysates may run through a third protein. These calls come from enrichment with a bait or labelling near it, and not all partners need be listed. For some assays here: No binding means not detected with the bait.

Sequences of proteins named here, by UniProt entry; tags and fusion partners are left off.
UniProt P10630: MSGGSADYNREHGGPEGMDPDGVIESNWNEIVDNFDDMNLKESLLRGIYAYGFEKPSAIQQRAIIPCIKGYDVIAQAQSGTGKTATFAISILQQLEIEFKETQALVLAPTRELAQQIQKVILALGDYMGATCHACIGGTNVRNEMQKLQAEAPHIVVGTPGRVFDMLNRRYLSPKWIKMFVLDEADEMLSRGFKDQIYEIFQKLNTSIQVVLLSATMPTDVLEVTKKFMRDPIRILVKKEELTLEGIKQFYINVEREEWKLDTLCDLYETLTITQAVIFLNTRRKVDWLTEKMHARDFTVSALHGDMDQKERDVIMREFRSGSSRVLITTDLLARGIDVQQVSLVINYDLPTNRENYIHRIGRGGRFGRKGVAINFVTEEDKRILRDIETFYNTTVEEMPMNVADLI
UniProt Q8CJG0: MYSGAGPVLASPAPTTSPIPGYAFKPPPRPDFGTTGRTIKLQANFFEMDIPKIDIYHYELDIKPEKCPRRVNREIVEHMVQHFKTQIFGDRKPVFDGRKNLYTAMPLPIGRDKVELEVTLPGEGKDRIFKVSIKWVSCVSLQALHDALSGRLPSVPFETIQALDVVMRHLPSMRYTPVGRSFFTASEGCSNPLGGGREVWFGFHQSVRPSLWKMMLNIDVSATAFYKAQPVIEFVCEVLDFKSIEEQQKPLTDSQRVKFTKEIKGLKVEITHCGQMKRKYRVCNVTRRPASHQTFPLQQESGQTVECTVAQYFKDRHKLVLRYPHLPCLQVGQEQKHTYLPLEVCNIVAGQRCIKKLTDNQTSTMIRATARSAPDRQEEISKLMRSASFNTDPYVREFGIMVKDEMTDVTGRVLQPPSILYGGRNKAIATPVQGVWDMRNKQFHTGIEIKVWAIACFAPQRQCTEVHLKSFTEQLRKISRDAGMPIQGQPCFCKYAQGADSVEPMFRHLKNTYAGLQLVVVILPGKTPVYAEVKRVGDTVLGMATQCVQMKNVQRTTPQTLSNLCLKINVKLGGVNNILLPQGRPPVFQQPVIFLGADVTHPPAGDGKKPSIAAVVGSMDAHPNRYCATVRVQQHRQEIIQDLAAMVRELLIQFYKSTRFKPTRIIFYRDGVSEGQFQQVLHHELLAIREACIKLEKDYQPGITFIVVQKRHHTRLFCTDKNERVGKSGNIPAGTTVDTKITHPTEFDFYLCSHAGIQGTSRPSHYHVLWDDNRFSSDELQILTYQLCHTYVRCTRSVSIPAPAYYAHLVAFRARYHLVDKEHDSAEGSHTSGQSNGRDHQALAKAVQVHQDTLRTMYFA
UniProt P61406: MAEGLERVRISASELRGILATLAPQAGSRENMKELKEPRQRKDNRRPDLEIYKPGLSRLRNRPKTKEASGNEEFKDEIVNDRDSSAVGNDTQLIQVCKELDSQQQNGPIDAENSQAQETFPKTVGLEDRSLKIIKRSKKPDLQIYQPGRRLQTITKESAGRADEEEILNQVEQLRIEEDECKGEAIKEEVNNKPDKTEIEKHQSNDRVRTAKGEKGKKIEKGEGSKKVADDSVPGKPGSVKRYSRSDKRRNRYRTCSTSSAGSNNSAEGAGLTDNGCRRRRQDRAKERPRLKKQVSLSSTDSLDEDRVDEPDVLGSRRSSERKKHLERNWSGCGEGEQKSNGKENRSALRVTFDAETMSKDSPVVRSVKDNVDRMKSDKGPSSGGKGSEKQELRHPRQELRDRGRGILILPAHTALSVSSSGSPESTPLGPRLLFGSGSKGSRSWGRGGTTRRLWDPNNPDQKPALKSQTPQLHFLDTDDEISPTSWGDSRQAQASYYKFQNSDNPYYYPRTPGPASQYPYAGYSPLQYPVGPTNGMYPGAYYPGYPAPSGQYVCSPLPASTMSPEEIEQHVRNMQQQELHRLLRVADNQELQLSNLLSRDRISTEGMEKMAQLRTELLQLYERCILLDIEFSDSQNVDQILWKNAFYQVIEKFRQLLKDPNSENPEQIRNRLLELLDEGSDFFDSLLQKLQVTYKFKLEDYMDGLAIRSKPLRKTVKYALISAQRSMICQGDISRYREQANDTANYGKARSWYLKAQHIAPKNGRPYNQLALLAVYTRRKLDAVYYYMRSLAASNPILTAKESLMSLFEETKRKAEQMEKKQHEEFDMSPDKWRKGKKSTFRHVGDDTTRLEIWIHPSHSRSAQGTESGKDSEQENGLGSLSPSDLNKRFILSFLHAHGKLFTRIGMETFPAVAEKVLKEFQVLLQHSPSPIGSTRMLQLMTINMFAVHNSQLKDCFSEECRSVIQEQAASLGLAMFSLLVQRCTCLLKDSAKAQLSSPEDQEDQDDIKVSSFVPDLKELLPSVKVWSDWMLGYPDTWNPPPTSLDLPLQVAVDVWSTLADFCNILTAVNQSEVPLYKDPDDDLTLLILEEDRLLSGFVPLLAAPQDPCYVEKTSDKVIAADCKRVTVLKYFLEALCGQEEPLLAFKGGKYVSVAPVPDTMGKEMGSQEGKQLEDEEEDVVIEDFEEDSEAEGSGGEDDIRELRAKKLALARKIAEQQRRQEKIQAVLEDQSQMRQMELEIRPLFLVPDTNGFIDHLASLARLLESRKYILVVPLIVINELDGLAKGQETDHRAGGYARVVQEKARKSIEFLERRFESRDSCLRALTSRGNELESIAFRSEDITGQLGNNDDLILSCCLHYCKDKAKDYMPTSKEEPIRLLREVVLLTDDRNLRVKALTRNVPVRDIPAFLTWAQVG
UniProt P60843: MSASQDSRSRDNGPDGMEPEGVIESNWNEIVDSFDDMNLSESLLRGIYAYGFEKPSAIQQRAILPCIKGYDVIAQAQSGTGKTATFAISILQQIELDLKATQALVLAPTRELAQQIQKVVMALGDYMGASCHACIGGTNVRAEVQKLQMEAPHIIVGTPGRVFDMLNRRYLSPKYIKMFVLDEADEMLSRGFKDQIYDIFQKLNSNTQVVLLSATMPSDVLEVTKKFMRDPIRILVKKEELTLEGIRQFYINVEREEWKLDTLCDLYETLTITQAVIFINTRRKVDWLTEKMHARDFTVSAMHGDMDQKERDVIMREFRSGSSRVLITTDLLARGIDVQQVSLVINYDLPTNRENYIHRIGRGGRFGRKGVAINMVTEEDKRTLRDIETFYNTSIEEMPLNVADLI
UniProt Q80U78: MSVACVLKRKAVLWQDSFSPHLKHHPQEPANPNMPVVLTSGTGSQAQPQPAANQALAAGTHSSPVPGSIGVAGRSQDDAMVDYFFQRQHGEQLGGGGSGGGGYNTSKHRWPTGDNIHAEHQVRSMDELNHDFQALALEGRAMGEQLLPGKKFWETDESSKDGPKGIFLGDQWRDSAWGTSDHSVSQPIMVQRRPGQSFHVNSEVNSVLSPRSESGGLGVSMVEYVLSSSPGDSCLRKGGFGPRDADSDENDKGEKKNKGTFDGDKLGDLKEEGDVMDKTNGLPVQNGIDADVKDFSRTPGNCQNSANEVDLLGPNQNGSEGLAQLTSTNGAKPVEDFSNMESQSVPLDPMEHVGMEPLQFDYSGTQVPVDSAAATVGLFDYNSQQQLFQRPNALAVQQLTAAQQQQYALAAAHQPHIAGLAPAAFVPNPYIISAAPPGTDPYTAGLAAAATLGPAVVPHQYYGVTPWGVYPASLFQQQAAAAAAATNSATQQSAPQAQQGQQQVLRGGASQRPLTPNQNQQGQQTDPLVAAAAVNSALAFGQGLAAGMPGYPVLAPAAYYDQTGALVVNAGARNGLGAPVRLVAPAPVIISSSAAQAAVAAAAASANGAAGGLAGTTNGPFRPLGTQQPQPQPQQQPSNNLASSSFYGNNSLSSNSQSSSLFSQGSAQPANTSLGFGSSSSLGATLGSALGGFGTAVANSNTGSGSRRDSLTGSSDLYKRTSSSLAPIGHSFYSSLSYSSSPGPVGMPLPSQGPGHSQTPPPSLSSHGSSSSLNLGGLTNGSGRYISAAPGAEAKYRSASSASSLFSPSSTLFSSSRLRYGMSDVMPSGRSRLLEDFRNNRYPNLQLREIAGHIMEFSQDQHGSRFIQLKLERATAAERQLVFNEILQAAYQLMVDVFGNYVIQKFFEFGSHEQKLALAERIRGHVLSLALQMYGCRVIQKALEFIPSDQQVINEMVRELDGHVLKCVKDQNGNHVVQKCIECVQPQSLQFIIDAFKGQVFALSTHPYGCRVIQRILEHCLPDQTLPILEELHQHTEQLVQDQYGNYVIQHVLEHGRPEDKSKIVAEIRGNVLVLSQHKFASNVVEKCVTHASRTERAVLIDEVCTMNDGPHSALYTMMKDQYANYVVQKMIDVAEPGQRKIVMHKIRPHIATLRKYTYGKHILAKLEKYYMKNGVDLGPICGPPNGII
UniProt Q9EPU0: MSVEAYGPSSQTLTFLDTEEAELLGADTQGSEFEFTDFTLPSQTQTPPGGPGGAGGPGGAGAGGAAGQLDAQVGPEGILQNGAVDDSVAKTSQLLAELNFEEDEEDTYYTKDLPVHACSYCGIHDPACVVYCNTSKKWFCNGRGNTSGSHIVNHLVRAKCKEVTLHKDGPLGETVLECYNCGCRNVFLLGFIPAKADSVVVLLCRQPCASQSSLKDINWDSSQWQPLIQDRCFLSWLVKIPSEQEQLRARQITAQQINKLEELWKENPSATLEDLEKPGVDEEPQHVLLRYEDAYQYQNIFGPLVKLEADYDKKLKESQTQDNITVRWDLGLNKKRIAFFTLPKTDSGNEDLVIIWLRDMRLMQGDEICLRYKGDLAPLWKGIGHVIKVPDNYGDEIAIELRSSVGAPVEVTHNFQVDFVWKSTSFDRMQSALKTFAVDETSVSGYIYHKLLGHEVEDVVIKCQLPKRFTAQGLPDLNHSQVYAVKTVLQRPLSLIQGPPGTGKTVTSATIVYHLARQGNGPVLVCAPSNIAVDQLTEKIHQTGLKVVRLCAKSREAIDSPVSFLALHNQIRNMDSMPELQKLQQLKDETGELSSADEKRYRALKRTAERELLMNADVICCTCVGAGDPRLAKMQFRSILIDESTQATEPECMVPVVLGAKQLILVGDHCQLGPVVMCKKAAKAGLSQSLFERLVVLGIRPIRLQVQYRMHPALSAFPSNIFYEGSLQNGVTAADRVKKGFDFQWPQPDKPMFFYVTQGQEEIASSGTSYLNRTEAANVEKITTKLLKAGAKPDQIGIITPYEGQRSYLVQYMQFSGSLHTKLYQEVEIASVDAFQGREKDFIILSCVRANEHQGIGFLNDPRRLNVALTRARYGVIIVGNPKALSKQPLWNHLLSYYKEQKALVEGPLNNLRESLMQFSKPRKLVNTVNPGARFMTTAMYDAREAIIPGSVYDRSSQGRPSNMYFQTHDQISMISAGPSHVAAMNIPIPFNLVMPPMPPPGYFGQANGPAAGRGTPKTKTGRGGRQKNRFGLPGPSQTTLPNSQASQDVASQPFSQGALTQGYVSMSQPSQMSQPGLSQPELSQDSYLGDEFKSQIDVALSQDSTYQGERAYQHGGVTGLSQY
UniProt P48432: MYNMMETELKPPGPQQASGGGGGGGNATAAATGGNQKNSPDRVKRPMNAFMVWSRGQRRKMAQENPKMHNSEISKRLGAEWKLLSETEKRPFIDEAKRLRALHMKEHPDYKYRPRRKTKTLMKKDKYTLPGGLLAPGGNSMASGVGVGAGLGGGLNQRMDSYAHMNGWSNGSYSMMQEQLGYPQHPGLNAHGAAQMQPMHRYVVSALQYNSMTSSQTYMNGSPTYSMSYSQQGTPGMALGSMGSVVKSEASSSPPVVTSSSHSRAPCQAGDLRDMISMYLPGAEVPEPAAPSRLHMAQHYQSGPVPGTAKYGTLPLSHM

B1: Mios (protein, UniProt Q8VE19 1-875)
chain: MSGTKPDILWAPHQVDRFVVCDSELSLYHVESAVNSELKAGSLRLSEDSAATLLSINSDTPYMKCVAWYLNYDPECLLAVGQANGRVVLTSLGQDHNSKFKDLIGKEFVPKHARQCNTLAWNPLDSNWLAAGLDKHRADFSVLIWDICSKYTPDIVPMEKVRLSAGEAETTLLVTKPLYELGQNDASLSLCWLPRDQKLLLAGMHRNLAIFDLRNTSQKMFVNTKAVQGVTVDPYFHDRVASFYEGQVAIWDLRKFEKPVLTLTEQPKPLTKVAWCPTRTGLLATLTRDSNIIRLYDMQHTPTPIGDETEPTIIERSVQPCDNYIASFAWHPTSQNRMIVVTPNRTMSDFTVFERISLAWSPITSLMWACGRHLYECAEEESDNSLEKDIATKMRLRALSRYGLDTEQVWRNHILAGNEDPQLKSLWYTLHFMKQYTEDNDQKSPGNKGSLVYAGIKSIVKSSLGMVESSRHNWSGLDKQTDIQNLNEERILALQLCGWIKKGTDVDVGPFLNSLVQEGEWERAAAVALFNLDIRRAIQILNEGASSEKGDLNLNVVAMALSGYTDEKNSLWREMCSTLRLQLNNPYLCVMFAFLTSEAGAYDGVLYENKVAVRDRVAFACKFLGDAQLNKYIEKLTNEMKEAGNLEGILLTGLTKDGVDLMESYVDRTGDVQTASYCMLQGSPLDVLKDERVQYWIENYRNLLDAWRFWHKRAEFDIHRSKLDPSSKPLAQVFVSCNFCGKSISYSCSSVPHQGRGFSQYGVSGSPTKSKVTSCPGCRKPLPRCALCLINMGTPVSSCPGGSKSDEKVDLSKDKKLAQFNNWFTWCHNCRHGGHAGHMLSWFRDHAECPVSACTCKCMQLDTTGNLVPAETVQP
B2: Wdr59 (protein, UniProt Q8C0M0 1-992)
chain: MAARWSSENVVVEFRDSQATAMSVDCLGQHAVLSGRRFLYIVNLDAPFEGHRKISRQSKWDIGAVQWNPHDSFAHYFAASSNQRVDLYKWKDGSGEVGTTLQGHTRVISDLDWAVFEPDLLVTSSVDTYIYIWDIKDTRKPTVALSAVAGASQVKWNKKNANYLATSHDGDVRIWDKRKPSTAVEYLAAHLSKIHGLDWHPDSEHIFATSSQDNSVKFWDYRQPRKYLNILPCQVPVWKARYTPFSNGLVTVMVPQLRRENSLLLWNASDLNAPVHTFVGHDDVVLEFQWRRQKEGSKDYQLVTWSRDQTLRMWRVDYQMQRLCANDILDGVDEFIESISLLPEPEKTPHPQDIDHQPSLSHGEEDAIKEDPPSSLLEEKRSDQLGLPQTLQQEFSLINVQIRNVNVEMDAADRSCTVSVHCSNHRVKMLVTFPAQYPNNAAPSFQFINPTTITSAVKAKLLKILKDTSLQKVKRNQSCLEPCLRQLVSCLESFVNQEDSASSNPFALQNSVTPPLPTFARVTTAYGSYQDANIPFPRTSGARFCGAGYLVYFTRPMTMHRAVSPTEPTPRSLSALSAYHTGLIAPMKIRTEAPGNLRLYSGSPTRSEKEQVSISSFYYKERKSRRWKSKREGSDSGNRPIKAAGKVIIQDVSCLLPVHKSLGELYILNVNDTQETCQKNATSAMLVGRKDLVQVWSLATVATDLCLGPKSDPDLETPWARHPFGRQLLESLWGDRESTRVCGPPLSGARLAHYCQLRDVQTLAMLCSVFEAQSRPQGLPNPFGPFPNRSSNLVVSHSRYPSFTSSGSCSSMSDPGFNTGGWNIAGRETEHISSPWGESSPEELRFGSLTYSDPRERERDQHDKNKRLLDPANTQQFDDFKKCYGEILYRWGLREKRAEVLKFVSCPPDPHKGIEFGVYCSHCRSEVRGTQCAICKGFTFQCAICHVAVRGSSNFCLTCGHGGHTSHMMEWFRTQEVCPTGCGCHCLLESTF
B3: Ogt (protein, UniProt Q8CGY8 1-1046)
chain: MASSVGNVADSTEPTKRMLSFQGLAELAHREYQAGDFEAAERHCMQLWRQEPDNTGVLLLLSSIHFQCRRLDRSAHFSTLAIKQNPLLAEAYSNLGNVYKERGQLQEAIEHYRHALRLKPDFIDGYINLAAALVAAGDMEGAVQAYVSALQYNPDLYCVRSDLGNLLKALGRLEEAKACYLKAIETQPNFAVAWSNLGCVFNAQGEIWLAIHHFEKAVTLDPNFLDAYINLGNVLKEARIFDRAVAAYLRALSLSPNHAVVHGNLACVYYEQGLIDLAIDTYRRAIELQPHFPDAYCNLANALKEKGSVAEAEDCYNTALRLCPTHADSLNNLANIKREQGNIEEAVRLYRKALEVFPEFAAAHSNLASVLQQQGKLQEALMHYKEAIRISPTFADAYSNMGNTLKEMQDVQGALQCYTRAIQINPAFADAHSNLASIHKDSGNIPEAIASYRTALKLKPDFPDAYCNLAHCLQIVCDWTDYDERMKKLVSIVAEQLEKNRLPSVHPHHSMLYPLSHGFRKAIAERHGNLCLDKINVLHKPPYEHPKDLKLSDGRLRVGYVSSDFGNHPTSHLMQSIPGMHNPDKFEVFCYALSPDDGTNFRVKVMAEANHFIDLSQIPCNGKAADRIHQDGIHILVNMNGYTKGARNELFALRPAPIQAMWLGYPGTSGALFMDYIITDQETSPAEVAEQYSEKLAYMPHTFFIGDHANMFPHLKKKAVIDFKSNGHIYDNRIVLNGIDLKAFLDSLPDVKIVKMKCPDGGDNPDSSNTALNMPVIPMNTIAEAVIEMINRGQIQITINGFSISNGLATTQINNKAATGEEVPRTIIVTTRSQYGLPEDAIVYCNFNQLYKIDPSTLQMWANILKRVPNSVLWLLRFPAVGEPNIQQYAQNMGLPQNRIIFSPVAPKEEHVRRGQLADVCLDTPLCNGHTTGMDVLWAGTPMVTMPGETLASRVAASQLTCLGCLELIAKSRQEYEDIAVKLGTDLEYLKKIRGKVWKQRISSPLFNTKQYTMELERLYLQMWEHYAAGNKPDHMIKPVEVTESA
B4: Smg7 (protein, UniProt Q5RJH6 1-1138)
chain: MSLQSAQYLRQAEVLKAEMTDSKLGPAEVWTSRQALQDLYQKMLVTDLEYALDKKVEQDLWNHAFKNQITTLQGQAKNRANPNRSEVQANLSLFLEAASGFYTQLLQELCTVFNVDLPCRVKSSQLGIISNKQTHSSTIVKPQSSSCSYICQHCLVHLGDIARYRNQTSQAESYYRHAAQLVPSNGQPYNQLAILASSKGDHLTTIFYYCRSIAVKFPFPAASTNLQKALSKALESRDELKTKWGVSDFIKAFIKFHGHVYLSKSLEKLSPLREKLEEQFKRLLFQKAFNSQQLVHVTVINLFQLHHLRDFSNETEQHSYSQDEQLCWTQLLALFMSFLGILCKCPLQNDSQESNNAYPLPAVKVSMDWLRLRPRVFQEAVVDERQYIWPWLISLLNSFHPREDDLSNTNATPLPEEFELQGFLALRPSFRNLDFSKGHQGITGDKEGQQRRIRQQRLISIGKWIADNQPRLIQCENEVGKLLFITEIPELILEDPSEAKENLILQETSVVESLATDGSPGLKSVLSTGRNPSNSCDSGEKPVVTFKENIKPREVNQGRSFPPKEVKSQTELRKTPVSEARKTPVTQTPSQTSNSQFIPIHHPGAFPPLPSRPGFPPPTYVIPPPVAFSMGSGYTFPAGVSVPGTFLQSTAHSPAGNQVQAGKQSHIPYSQQRPSGPGPMNQGPQQSQPPSQPPLTSLPAQPTAQSTSQLQVQALAQQQQSPTKVIPALGKSPPHHSGFQQYQQADASKQLWNPPQVQSPLGKIMPVKQSYYLQTQDPIKLFEPSLQPPVIQQQPLEKKMKPFPMEPYNHNPSEVKVPEFYWDSSYSMADNRAVMAQQPNMDRRSKRSPGVFRPEQDPVPRMPFEDPKSSPLLPPDLLKSLAALEEEEELIFSNPPDLYPALLGPLASLPGRSLFKSLLEKPSELMSHSSSFLSLTGFSVNQERYPNSSMFNEVYGKNLTTSSKAELNPSVASQETSLYSLFEGTPWSPSLPASSDHSTPASQSPHSSNPSSLPSSPPTHNHNSAPFSNFGPIGTPDNRDRRPADRWKTDKPAMGGFGVDYLSATSSSESSWHQASTPSGTWTGHGPSMEDSSAVLMESLKSIWSSSMMHPGPSALEQLLMQQKQKQQRGQGAMNPPH
B5: Nr0b1 (Dax1) (protein, UniProt Q61066 1-472)
chain: MAGEDHPWQGSILYNLLMSAKQKHASQEEREVRLGAQCWGCACGAQPVLGGERLSGGQARSLLYRCCFCGENHPRQGGILYSMLTNARQPSVATQAPRARFGAPCWGCACGSAEPLVGREGLPAGQAPSLLYRCCFCGEEHPRQGSILYSLLTSAQQTHVSREAPEAHRRGEWWQLSYCTQSVGGPEGLQSTQAMAFLYRSYVCGEEQPQQISVASGTPVSADQTPATPQEQPRAPWWDASPGVQRLITLKDPQVVCEAASAGLLKTLRFVKYLPCFQILPLDQQLVLVRSCWAPLLMLELAQDHLHFEMMEIPETNTTQEMLTTRRQETEGPEPAEPQATEQPQMVSAEAGHLLPAAAVQAIKSFFFKCWSLNIDTKEYAYLKGTVLFNPDLPGLQCVKYIEGLQWRTQQILTEHIRMMQREYQIRSAELNSALFLLRFINSDVVTELFFRPIIGAVSMDDMMLEMLCAKL
B6: Trim71 (protein, UniProt Q1PSW8 1-855)
chain: MASFPETDFQICLLCKEMCGSPAPLSSNSSASSSSSQTSTSSAGGGGPGAAARRLHVLPCLHAFCRPCLEAHRLPAPGGAGPAEALKLRCPVCDQKVVLAEAAGMDALPSSAFLLSNLLDAVVATAEEPPPKNGRAGGGPGGAGGHSNHRHHAHHPAQRAAAPAPQPPPGPAASPGSLLMRRPHGCSSCDEGNAASSRCLDCQEHLCDNCVRAHQRVRLTKDHYIERGPPGPAAASAAQQLGLGPPFAGAPFSILSVFPERLGFCQHHDDEVLHLYCDTCSVPICRECTLGRHGGHSFAYLQDALQDSRALTIQLLADAQQGRQALQLSIEQAQTVAEQVEMKAKVVQSEVKAVTARHKKALEDRECELLWKVEKIRQVKAKSLFLQVEKLRQSLSKLESTISAVQQVLEEGRALDILLARDRMLAQVQELKTIRGLLQPQEDDRIMFTPPDQALYLALKSIGFVSSGAFAPLTKATGDGIKRALQGKVASFTVMGYDHDGEPRHSGGDLMSVVVLGPDGNLFGAEVSDQQNGTYIVSYRPQLEGEHLVSVTLYNQHIENSPFKVVVKSGRSYVGIGLPGLSFGSEGDGEGKLCRPWGVSVDKEGFIIVADRSNNRIQVFKPCGSFHHKFGTLGSRPGQFDRPAGVACDASRRIIVADKDNHRIQIFTFEGQFLLKFGEKGTKNGQFNYPWDVAVNSEGKILVSDTRNHRIQLFGPDGVFLNKYGFEGSLWKHFDSPRGVAFNNEGHLVVTDFNNHRLLVIHPDCQSARFLGSEGSGNGQFLRPQGVAVDQEGRIIVADSRNHRVQMFEANGSFLCKFGAQGSGFGQMDRPSGIAVTPDGLIVVVDFGNNRILIF

biological target: flag-tagged Eif4a2^PTC (mouse); assay: affinity purification with mass spectrometry

binding | Molecule
binds | B1
binds | B2
binds | B3
binds | B4
binds | B5
binds | B6

biological target: flag-tagged Eif4a2^FL (mouse) (UniProt P10630); assay: affinity purification with mass spectrometry

binding | Molecule
binds | Ago2 (from UniProt Q8CJG0 1-860)
no binding | Raf1 (from UniProt Q99N57 1-648)
no binding | Tsc2 (from UniProt Q61037 1-1814)
binds | Smg6 (from UniProt P61406 1-1418)
no binding | Eif4a1 (from UniProt P60843 1-406)
binds | Pum1 (from UniProt Q80U78 1-1189)
binds | Upf1 (from UniProt Q9EPU0 1-1124)
binds | Sox2 (from UniProt P48432 1-319)
no binding | B1
binds | B2
binds | B3
binds | B4
binds | B5
binds | B6
